Data reported in patent publication US20120172333A1, “PYRROLO-PYRIDINE DERIVATIVES AS ACTIVATORS OF AMPK” (GLAXOSMITHKLINE LLC, priority 2009, published 2012).
Some of these results come from one statement about several compounds together.

test system: Human recombinant AMPK; test: AMPK enzymatic assay (Z'Lyte FRET); assay type: biochemical; details: ATP 100 μM, peptide 2 μM, 1% DMSO, 1 hour at 30° C.; means of at least 2 independent experiments

| Compound | pEC200 (-Log(compound concentration leading to a 2-fold AMPK activity increase)) |
| --- | --- |
| N#Cc1c(O)c2c(cc(Cl)n2-c2ccc(-c3ccsc3)cc2)[nH]c1=O [Example 73, 2-Chloro-7-hydroxy-5-oxo-1-[4-(3-thienyl)phenyl]-4,5-dihydro-1H-pyrrolo[3,2-b]pyridine-6-carbonitrile] | greater than 4.0 |
| N#Cc1c(O)c2c(cc(Cl)n2-c2ccc(-c3cc(C(=O)O)ccc3O)cc2)[nH]c1=O [Example 70, 4′-(2-Chloro-6-cyano-7-hydroxy-5-oxo-4,5-dihydro-1H-pyrrolo[3,2-b]pyridin-1-yl)-6-hydroxy-3-biphenylcarboxylic acid] | greater than 4.0 |
| COc1ccc(-c2ccc(-n3ccc4[nH]c(=O)c(C#N)c(O)c43)cc2)cn1 [Example 19, 7-Hydroxy-1-{4-[6-(methyloxy)-3-pyridinyl]phenyl}-5-oxo-4,5-dihydro-1H-pyrrolo[3,2-b]pyridine-6-carbonitrile] | greater than 4.0 |
| COc1ccc(-n2ccc3[nH]c(=O)c(C#N)c(O)c32)cc1 [Example 42, 7-Hydroxy-1-[4-(methyloxy)phenyl]-5-oxo-4,5-dihydro-1H-pyrrolo[3,2-b]pyridine-6-carbonitrile] | greater than 4.0 |
| N#Cc1c(O)c2c(ccn2-c2ccc(-c3cccnc3O)cc2)[nH]c1=O [Example 75, 7-Hydroxy-1-[4-(2-hydroxy-3-pyridinyl)phenyl]-5-oxo-4,5-dihydro-1H-pyrrolo[3,2-b]pyridine-6-carbonitrile] | greater than 4.0 |
| N#Cc1c(O)c2c(ccn2-c2ccc(-c3ccc(F)cc3O)cc2)[nH]c1=O [Example 74, 1-(4′-Fluoro-2′-hydroxy-4-biphenylyl)-7-hydroxy-5-oxo-4,5-dihydro-1H-pyrrolo [3,2-b]pyridine-6-carbonitrile] | greater than 4.0 |
| N#Cc1c(O)c2c(ccn2-c2ccc(-c3ccc(Cl)cc3Cl)cc2)[nH]c1=O [Example 34, 1-(2′,4′-Dichloro-4-biphenylyl)-7-hydroxy-5-oxo-4,5-dihydro-1H-pyrrolo[3,2-b]pyridine-6-carbonitrile] | greater than 4.0 |
| N#Cc1c(O)c2c(ccn2-c2ccc(-c3c(O)cccc3F)cc2)[nH]c1=O [Example 62, 1-(2′-Fluoro-6′-hydroxy-4-biphenylyl)-7-hydroxy-5-oxo-4,5-dihydro-1H-pyrrolo[3,2-b]pyridine-6-carbonitrile] | greater than 4.0 |
| COc1ccc(-c2ccc(-n3ccc4[nH]c(=O)c(C#N)c(O)c43)cc2)nc1 [Example 55, 7-Hydroxy-1-{4-[5-(methyloxy)-2-pyridinyl]phenyl}-5-oxo-4,5-dihydro-1H-pyrrolo[3,2-b]pyridine-6-carbonitrile] | greater than 4.0 |
| N#Cc1c(O)c2c(cc(Cl)n2-c2ccc(-c3cc(F)ccc3O)cc2)[nH]c1=O [Example 66, 2-Chloro-1-(5′-fluoro-2′-hydroxy-4-biphenylyl)-7-hydroxy-5-oxo-4,5-dihydro-1H-pyrrolo[3,2-b]pyridine-6-carbonitrile] | greater than 4.0 |
| N#Cc1c(O)c2c(ccn2-c2ccc(-c3ccccc3Cl)cc2)[nH]c1=O [Example 18, 1-(2′-Chloro-4-biphenylyl)-7-hydroxy-5-oxo-4,5-dihydro-1H-pyrrolo[3,2-b]pyridine-6-carbonitrile] | greater than 4.0 |
| N#Cc1c(O)c2c(ccn2-c2ccc(-c3cc(C(=O)O)ccc3O)cc2)[nH]c1=O [Example 65, 4′-(6-Cyano-7-hydroxy-5-oxo-4,5-dihydro-1H-pyrrolo[3,2-b]pyridin-1-yl)-6-hydroxy-3-biphenylcarboxylic acid] | greater than 4.0 |
| Cc1ccc(-c2ccc(-n3ccc4[nH]c(=O)c(C#N)c(O)c43)cc2)cc1 [Example 15, 7-Hydroxy-1-(4′-methyl-4-biphenylyl)-5-oxo-4,5-dihydro-1H-pyrrolo[3,2-b]pyridine-6-carbonitrile] | greater than 4.0 |
| COc1ccc(-c2c(O)c3c(ccn3-c3ccc(Br)cc3)[nH]c2=O)cc1 [Example 38, 1-(4-Bromophenyl)-7-hydroxy-6-[4-(methyloxy)phenyl]-1,4-dihydro-5H-pyrrolo[3,2-b]pyridin-5-one] | greater than 4.0 |
| N#Cc1c(O)c2c(ccn2-c2ccc(-c3ccccc3C(F)(F)F)cc2)[nH]c1=O [Example 33, 7-Hydroxy-5-oxo-1-[2′-(trifluoromethyl)-4-biphenylyl]-4,5-dihydro-1H-pyrrolo[3,2-b]pyridine-6-carbonitrile] | greater than 4.0 |
| N#Cc1c(O)c2c(ccn2-c2ccc(-c3ccsc3)cc2)[nH]c1=O [Example 48, 7-Hydroxy-5-oxo-1-[4-(3-thienyl)phenyl]-4,5-dihydro-1H-pyrrolo[3,2-b]pyridine-6-carbonitrile] | greater than 4.0 |
| COc1ccccc1-c1ccc(-n2ccc3[nH]c(=O)c(C#N)c(O)c32)cc1 [Example 4, 7-Hydroxy-1-[2′-(methyloxy)-4-biphenylyl]-5-oxo-4,5-dihydro-1H-pyrrolo[3,2-b]pyridine-6-carbonitrile] | greater than 4.0 |

same assay, conditions: same AMPK enzymatic assay; ATP 100 μM, peptide 2 μM

| Compound | average pEC50 |
| --- | --- |
| O=c1[nH]c2cc(Cl)n(-c3ccc(-c4ccsc4)cc3)c2c(O)c1-c1ccccc1 [Example 152, 2-Chloro-7-hydroxy-6-phenyl-1-[4-(3-thienyl)phenyl]-1,4-dihydro-5H-pyrrolo[3,2-b]pyridin-5-one] | greater than 4.5 |
| COc1ccc(-c2ccc(-n3c(Cl)cc4[nH]c(=O)c(C#N)c(O)c43)cc2)c(Cl)c1 [Example 117, 2-Chloro-1-[2′-chloro-4′-(methyloxy)-4-biphenylyl]-7-hydroxy-5-oxo-4,5-dihydro-1H-pyrrolo[3,2-b]pyridine-6-carbonitrile] | greater than 4.5 |
| COc1cccc(-c2c(O)c3c(cc(Cl)n3-c3ccc(-c4cccc(OC)c4O)cc3)[nH]c2=O)c1 [Example 168, 2-Chloro-7-hydroxy-1-[2′-hydroxy-3′-(methyloxy)-4-biphenylyl]-6-[3-(methyloxy)phenyl]-1,4-dihydro-5H-pyrrolo[3,2-b]pyridin-5-one] | greater than 4.5 |
| N#Cc1c(O)c2c(ccn2-c2ccc(-c3ccc(Cl)s3)cc2)[nH]c1=O [Example 35, 1-[4-(5-Chloro-2-thienyl)phenyl]-7-hydroxy-5-oxo-4,5-dihydro-1H-pyrrolo[3,2-b]pyridine-6-carbonitrile] | greater than 4.5 |
| N#Cc1c(O)c2c(cc(Cl)n2-c2ccc(-c3c(O)cccc3Cl)cc2)[nH]c1=O [Example 119, 2-Chloro-1-(2′-chloro-6′-hydroxy-4-biphenylyl)-7-hydroxy-5-oxo-4,5-dihydro-1H-pyrrolo[3,2-b]pyridine-6-carbonitrile] | greater than 4.5 |
| NC(=O)c1ccc(-c2c(O)c3c(cc(Cl)n3-c3ccc(-c4ccsc4)cc3)[nH]c2=O)cc1 [Example 160, 4-{2-Chloro-7-hydroxy-5-oxo-1-[4-(3-thienyl)phenyl]-4,5-dihydro-1H-pyrrolo[3,2-b]pyridin-6-yl}benzamide] | greater than 4.5 |
| N#Cc1ccc(-c2c(O)c3c(ccn3-c3ccc(-c4cc(F)ccc4O)cc3)[nH]c2=O)cc1 [Example 80, 4-[1-(5′-Fluoro-2′-hydroxy-4-bi-phenylyl)-7-hydroxy-5-oxo-4,5-dihydro-1H-pyrrolo[3,2-b]pyridin-6-yl]benzonitrile] | greater than 4.5 |
| COc1ccc(-c2ccc(-n3c(Cl)cc4[nH]c(=O)c(C#N)c(O)c43)cc2)nc1 [Example 99, 2-Chloro-7-hydroxy-1-{4-[5-(methyloxy)-2-pyridinyl]phenyl}-5-oxo-4,5-dihydro-1H-pyrrolo[3,2-b]pyridine-6-carbonitrile] | greater than 4.5 |
| COc1ccc(-n2c(Cl)cc3[nH]c(=O)c(-c4ccccc4F)c(O)c32)cc1 [Example 121, 2-Chloro-6-(2-fluorophenyl)-7-hydroxy-1-[4-(methyloxy)phenyl]-1,4-dihydro-5H-pyrrolo[3,2-b]pyridin-5-one] | greater than 4.5 |
| COc1cccc(-n2c(Cl)cc3[nH]c(=O)c(-c4ccccc4F)c(O)c32)c1 [Example 127, 2-Chloro-6-(2-fluorophenyl)-7-hydroxy-1-[3-(methyloxy)phenyl]-1,4-dihydro-5H-pyrrolo[3,2-b]pyridin-5-one] | greater than 4.5 |
| Cc1nc(-c2ccc(-n3ccc4[nH]c(=O)c(C#N)c(O)c43)cc2)cs1 [Example 92, 7-Hydroxy-1-[4-(2-methyl-1,3-thiazol-4-yl)phenyl]-5-oxo-4,5-dihydro-1H-pyrrolo[3,2-b]pyridine-6-carbonitrile] | greater than 4.5 |
| Cc1cccc(-c2ccc(-n3ccc4[nH]c(=O)c(-c5ccc(C#N)cc5)c(O)c43)cc2)c1O [Example 82, 4-[7-Hydroxy-1-(2′-hydroxy-3′-methyl-4-biphenylyl)-5-oxo-4,5-dihydro-1H-pyrrolo[3,2-b]pyridin-6-yl]benzonitrile] | greater than 4.5 |
| COc1ccc(-n2c(Cl)cc3[nH]c(=O)c(-c4ccc(F)cc4)c(O)c32)cc1 [Example 124, 2-Chloro-6-(4-fluorophenyl)-7-hydroxy-1-[4-(methyloxy)phenyl]-1,4-dihydro-5H-pyrrolo[3,2-b]pyridin-5-one] | greater than 4.5 |
| Cc1ccc(O)c(-c2ccc(-n3ccc4[nH]c(=O)c(-c5ccc(C#N)cc5)c(O)c43)cc2)c1 [Example 81, 4-[7-Hydroxy-1-(2′-hydroxy-5′-methyl-4-biphenylyl)-5-oxo-4,5-dihydro-1H-pyrrolo[3,2-b]pyridin-6-yl]benzonitrile] | greater than 4.5 |
| Cn1cc(-c2ccc(-n3ccc4[nH]c(=O)c(C#N)c(O)c43)cc2)cn1 [Example 91, 7-Hydroxy-1-[4-(1-methyl-1H-pyrazol-4-yl)phenyl]-5-oxo-4,5-dihydro-1H-pyrrolo[3,2-b]pyridine-6-carbonitrile] | greater than 4.5 |
